Results deposited as PubChem BioAssay AID1259308 (NCATS, 2017)
The deposit covers about 59,000 reagents; below is an unselected part. Of all reagents, about 1,510 (2.6%) were called active. 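Calls use total luciferase alone and ignore viability, so some active siRNAs may act by altering cell number.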 The numbers tell different reagents against one gene apart. Further read-outs or replicates are left out here.

- Assay: 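Genes whose loss raises luciferase production in HEK293 cells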 (primary screen)
- Cell system: human HEK293 embryonic kidney cells stably expressing firefly luciferase (HEK-CMV-Luc2-Hygro)
- Reagent: single siRNA against human genes, 0.8 pmol siRNA per well
- Duration: 72 h
- Read-out: 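Luciferase light (ONE-Glo) measured on one replicate plate set and viability (CellTiter-Glo) on the other, scaled to a negative control siRNA, with robust z-scores and luciferase per cell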
- Scale: total luciferase, z-score and total luciferase, % of control: higher = more reporter protein produced
- Call rule: 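An siRNA counts as active if its total luciferase robust z-score exceeds 3; genes with two or more such siRNAs out of three were retested with fresh siRNAs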
- Meaning of the calls: active = raised luciferase; inactive = no rise

AURKAIP1 #1
- total luciferase, z-score: 1.25
- total luciferase, % of control: 107
- Outcome: inactive

AURKAIP1 #2
- total luciferase, z-score: 0.625
- total luciferase, % of control: 94.3
- Outcome: inactive

AURKAIP1 #3
- total luciferase, z-score: -0.194
- total luciferase, % of control: 78
- Outcome: inactive

TMOD1 #1
- total luciferase, z-score: -0.0712
- total luciferase, % of control: 80.5
- Outcome: inactive

TMOD1 #2
- total luciferase, z-score: -1
- total luciferase, % of control: 61.9
- Outcome: inactive

TMOD1 #3
- total luciferase, z-score: 3.21
- total luciferase, % of control: 146
- Outcome: active

DUX1 #1
- total luciferase, z-score: 0.364
- total luciferase, % of control: 89.1
- Outcome: inactive

DUX1 #2
- total luciferase, z-score: -0.452
- total luciferase, % of control: 72.9
- Outcome: inactive

DUX1 #3
- total luciferase, z-score: -0.14
- total luciferase, % of control: 79.1
- Outcome: inactive

KRT7 #1
- total luciferase, z-score: 3.17
- total luciferase, % of control: 145
- Outcome: active

KRT7 #2
- total luciferase, z-score: -0.541
- total luciferase, % of control: 71.1
- Outcome: inactive

KRT7 #3
- total luciferase, z-score: 0.902
- total luciferase, % of control: 99.8
- Outcome: inactive

GNAT3 #1
- total luciferase, z-score: 1.71
- total luciferase, % of control: 116
- Outcome: inactive

GNAT3 #2
- total luciferase, z-score: 0.29
- total luciferase, % of control: 87.7
- Outcome: inactive

GNAT3 #3
- total luciferase, z-score: -0.353
- total luciferase, % of control: 74.9
- Outcome: inactive

BATF #1
- total luciferase, z-score: 0.469
- total luciferase, % of control: 91.2
- Outcome: inactive

BATF #2
- total luciferase, z-score: -1.46
- total luciferase, % of control: 52.9
- Outcome: inactive

BATF #3
- total luciferase, z-score: 0.914
- total luciferase, % of control: 100
- Outcome: inactive

AKR1C3 #1
- total luciferase, z-score: -0.651
- total luciferase, % of control: 68.9
- Outcome: inactive

AKR1C3 #2
- total luciferase, z-score: 1.75
- total luciferase, % of control: 117
- Outcome: inactive

AKR1C3 #3
- total luciferase, z-score: -0.157
- total luciferase, % of control: 78.8
- Outcome: inactive

Ordered by “total luciferase, z-score” (descending): some entries from above.
AKR1C3 #2
- total luciferase, z-score: 1.75
- total luciferase, % of control: 117
- Outcome: inactive

AKR1C3 #3
- total luciferase, z-score: -0.157
- total luciferase, % of control: 78.8
- Outcome: inactive

AKR1C3 #1
- total luciferase, z-score: -0.651
- total luciferase, % of control: 68.9
- Outcome: inactive
